# Assay results: patent publication US20240041830A1, “CIRCULATING BIOMARKERS OF RESPONSE TO PD-1/PD-L1 BLOCKADE AND GSK-3 INHIBITION” (Brown University, priority 2022, published 2024)
# Legend:
# Experiment in all cases: microarray analysis
# Type in all cases: cell-based, human
# HCT-116 = tested on: HCT-116
# Method: (§1) Microarrays. A total of 0.5×10^6 tumor cells (HCT-116, HT-29, KM12C) were plated in a 6-well plate and allowed to adhere overnight before 24-hour treatment, as indicated. Then, 1×10^6 immune cells (NK92, TALL-104) were plated and treated with elraglusib as indicated for twenty-four h. RNA was isolated from cell pellets in batches of six using a RNeasy Plus Mini Kit (Cat #74134, Qiagen, Hilden, Germany). Acceptable RNA concentration and quality were verified with Nanodrop and Bioanalyzer measurements. GeneChip™ Human Transcriptome Array 2.0 assays were conducted according to manufacturer instructions in two batches using randomized samples to limit batch effects (Cat #902162, Applied Biosystems, Waltham, MA, USA). Applied Biosystems Transcriptomic Analysis Console (TAC) software (RRID: SCR_016519) was used to calculate fold changes in gene expression relative to the untreated control cells. Values were considered statistically significant for p values<0.05.
# (§2) The inventors then utilized microarray analysis to gain insights into gene expression changes in colorectal cancer cell lines post-GSK-3 inhibition with elraglusib. Several colorectal cancer cell lines (HCT-116, HT-29, KM12C) were treated with elraglusib at IC-50 concentrations or DMSO as vehicle control for twenty-four hours. Treated versus untreated samples were compared in triplicate using microarray analysis FIG. 10. Results were calculated using a fold change (FC) cutoff of >1.5, <−1.5, and a minimum p-value of<0.05. HCT-116 cells had 340 differentially expressed genes post-treatment. FIG. 2C.
# HT-29 = tested on: HT-29
# Method: as §1, §2
# TABLE 9 description. HT-29 CRC cell microarray analysis. HT-29 colorectal cancer cells were treated with 1 μM elraglusib for 24 hours and treated versus untreated control samples were compared in triplicate via microarray analysis (N=3). Table showing differentially expressed genes of interest with their corresponding fold changes, p values, descriptions, and functions. […] Genes are ordered by fold change and were calculated using a fold change cutoff of >1.5, <−1.5, and a minimum p value of <0.05.
# KM12C = tested on: KM12C
# [1] = 24 hours, FC >1.5, <−1.5, p<0.05
# [2] = of 3124 genes in three cell lines
smiles,measurement,setting,value
Cn1cc(C2=C(c3coc4ccc(F)cc34)C(=O)NC2=O)c2cc3c(cc21)OCO3 [elraglusib],differentially expressed genes post-treatment,HCT-116; [1],340
same,differentially expressed genes (Venn diagram),HCT-116; [2],241
same,downregulated genes in VEGFA-VEGFR2 pathway,HCT-116; post-elraglusib,29
same,differentially expressed genes post-treatment,HT-29; [1],2307
same,differentially expressed genes (Venn diagram),HT-29; [2],1805
same,downregulated genes in VEGFA-VEGFR2 pathway,HT-29; post-elraglusib,37
same,differentially expressed genes post-treatment,KM12C; [1],1032
same,differentially expressed genes (Venn diagram),KM12C; [2],549
same,downregulated genes in VEGFA-VEGFR2 pathway,KM12C; post-elraglusib,forty-eight
